Out of some 280,000 compounds screened, about 2,600 (0.93%) were called active. The source calls these results inconclusive, neither active nor inactive. Calls come from the whole dose curve; as a rule, active = well fitted curve in the direction sought with a large enough effect; inconclusive = small, poorly fitted or top-dose-only effect; inactive = flat fitted curve, though single readings scatter.
test: Counterscreen qHTS for Inhibitors of Tau Fibril Formation, Fluorescence Polarization; conditions: tau K18 P301L (four-repeat tau fragment) Alexa594 fluorescence, heparin fibrillization; note: nearly all actives have a fitted effect of over 55% in size
Potency is the fitted concentration of half-maximal effect.

Question: For `CP(=O)(Nc1ccc(SC(F)(F)F)cc1)Oc1ccc(Cl)cc1` (configuration not stated), which Potency is on record?
Answer: Its Potency is inconclusive: 794 nM.

Question: With `CCc1ccc(OP(C)(=O)N2CCN(c3ccc([N+](=O)[O-])cc3)CC2)cc1` (configuration not stated) as the compound, how does the Potency read?
Answer: The Potency was inconclusive: 1580 nM.
